Measurements from the supplement of paper PMC10849652.
The list shows a part of the results.

By UniProt entry, the sequences of proteins in these tests, tags left out. Where a name states a change or a piece, a line headed by the entry shows the natural chain unless it says otherwise.
UniProt Q9UL46, whole entry, looked up: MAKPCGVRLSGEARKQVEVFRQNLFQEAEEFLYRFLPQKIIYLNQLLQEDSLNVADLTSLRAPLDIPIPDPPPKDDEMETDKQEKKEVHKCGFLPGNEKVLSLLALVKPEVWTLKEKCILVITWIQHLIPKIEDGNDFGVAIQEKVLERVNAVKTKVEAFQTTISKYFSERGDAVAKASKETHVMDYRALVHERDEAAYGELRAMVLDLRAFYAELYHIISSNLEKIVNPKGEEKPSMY
UniProt Q8TBF2: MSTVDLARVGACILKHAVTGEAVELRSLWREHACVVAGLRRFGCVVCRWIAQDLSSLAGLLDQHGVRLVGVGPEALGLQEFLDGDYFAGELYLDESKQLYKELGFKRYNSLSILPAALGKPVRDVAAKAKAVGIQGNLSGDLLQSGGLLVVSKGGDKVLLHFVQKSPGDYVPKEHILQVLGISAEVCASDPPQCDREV
UniProt Q5THK1: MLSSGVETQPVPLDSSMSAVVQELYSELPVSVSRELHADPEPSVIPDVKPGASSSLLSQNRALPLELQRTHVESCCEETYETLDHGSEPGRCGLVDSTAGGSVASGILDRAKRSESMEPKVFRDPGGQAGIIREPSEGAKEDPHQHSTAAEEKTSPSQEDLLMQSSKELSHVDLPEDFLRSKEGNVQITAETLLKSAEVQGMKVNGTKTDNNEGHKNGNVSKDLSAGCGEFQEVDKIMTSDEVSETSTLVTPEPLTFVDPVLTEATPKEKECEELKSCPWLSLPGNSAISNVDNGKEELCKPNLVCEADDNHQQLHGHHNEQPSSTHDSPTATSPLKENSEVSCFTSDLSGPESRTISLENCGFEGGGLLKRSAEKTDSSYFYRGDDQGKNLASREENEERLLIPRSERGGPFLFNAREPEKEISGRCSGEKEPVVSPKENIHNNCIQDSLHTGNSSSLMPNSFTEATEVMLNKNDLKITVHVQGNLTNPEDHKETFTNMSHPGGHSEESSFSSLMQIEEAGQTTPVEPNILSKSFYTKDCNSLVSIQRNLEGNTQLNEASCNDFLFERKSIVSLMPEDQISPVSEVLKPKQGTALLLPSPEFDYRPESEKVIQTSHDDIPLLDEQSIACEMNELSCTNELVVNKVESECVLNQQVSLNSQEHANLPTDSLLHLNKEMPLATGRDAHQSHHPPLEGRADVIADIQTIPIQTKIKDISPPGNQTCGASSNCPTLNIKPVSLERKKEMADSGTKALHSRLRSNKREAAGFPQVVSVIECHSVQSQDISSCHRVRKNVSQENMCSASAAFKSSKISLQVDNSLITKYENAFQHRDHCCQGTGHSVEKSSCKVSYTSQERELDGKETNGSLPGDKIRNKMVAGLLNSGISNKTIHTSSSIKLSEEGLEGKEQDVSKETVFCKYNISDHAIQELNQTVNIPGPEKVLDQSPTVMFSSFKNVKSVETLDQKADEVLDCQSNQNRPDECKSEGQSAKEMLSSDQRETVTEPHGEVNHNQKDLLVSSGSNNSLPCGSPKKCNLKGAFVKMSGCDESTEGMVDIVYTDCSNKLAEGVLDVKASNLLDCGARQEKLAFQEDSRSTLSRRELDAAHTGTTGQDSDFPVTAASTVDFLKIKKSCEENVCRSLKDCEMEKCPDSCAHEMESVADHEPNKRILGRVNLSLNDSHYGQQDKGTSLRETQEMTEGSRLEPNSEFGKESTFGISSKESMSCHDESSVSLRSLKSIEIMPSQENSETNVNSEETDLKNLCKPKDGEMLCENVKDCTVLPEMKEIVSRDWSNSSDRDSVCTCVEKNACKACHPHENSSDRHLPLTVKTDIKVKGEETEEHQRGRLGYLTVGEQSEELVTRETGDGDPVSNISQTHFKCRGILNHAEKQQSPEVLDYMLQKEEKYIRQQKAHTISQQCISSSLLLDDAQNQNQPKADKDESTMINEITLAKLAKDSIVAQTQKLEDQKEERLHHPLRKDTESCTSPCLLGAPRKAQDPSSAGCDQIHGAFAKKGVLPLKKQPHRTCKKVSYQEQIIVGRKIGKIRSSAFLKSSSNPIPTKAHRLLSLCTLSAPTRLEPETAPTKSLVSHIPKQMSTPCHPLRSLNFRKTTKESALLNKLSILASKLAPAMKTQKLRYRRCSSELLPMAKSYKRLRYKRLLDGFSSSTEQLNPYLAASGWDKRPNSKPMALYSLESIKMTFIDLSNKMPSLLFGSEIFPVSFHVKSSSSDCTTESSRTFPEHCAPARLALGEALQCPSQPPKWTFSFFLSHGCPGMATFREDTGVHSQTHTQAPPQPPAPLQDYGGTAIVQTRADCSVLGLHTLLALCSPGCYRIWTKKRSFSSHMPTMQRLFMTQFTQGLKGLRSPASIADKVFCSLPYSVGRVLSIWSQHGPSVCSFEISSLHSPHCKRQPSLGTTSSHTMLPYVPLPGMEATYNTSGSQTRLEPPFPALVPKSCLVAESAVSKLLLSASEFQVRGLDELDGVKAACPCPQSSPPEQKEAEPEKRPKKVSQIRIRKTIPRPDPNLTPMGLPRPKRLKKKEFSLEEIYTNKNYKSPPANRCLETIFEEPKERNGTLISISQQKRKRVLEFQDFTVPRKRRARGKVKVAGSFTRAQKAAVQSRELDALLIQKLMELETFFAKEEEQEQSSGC
UniProt P23219, whole entry, looked up: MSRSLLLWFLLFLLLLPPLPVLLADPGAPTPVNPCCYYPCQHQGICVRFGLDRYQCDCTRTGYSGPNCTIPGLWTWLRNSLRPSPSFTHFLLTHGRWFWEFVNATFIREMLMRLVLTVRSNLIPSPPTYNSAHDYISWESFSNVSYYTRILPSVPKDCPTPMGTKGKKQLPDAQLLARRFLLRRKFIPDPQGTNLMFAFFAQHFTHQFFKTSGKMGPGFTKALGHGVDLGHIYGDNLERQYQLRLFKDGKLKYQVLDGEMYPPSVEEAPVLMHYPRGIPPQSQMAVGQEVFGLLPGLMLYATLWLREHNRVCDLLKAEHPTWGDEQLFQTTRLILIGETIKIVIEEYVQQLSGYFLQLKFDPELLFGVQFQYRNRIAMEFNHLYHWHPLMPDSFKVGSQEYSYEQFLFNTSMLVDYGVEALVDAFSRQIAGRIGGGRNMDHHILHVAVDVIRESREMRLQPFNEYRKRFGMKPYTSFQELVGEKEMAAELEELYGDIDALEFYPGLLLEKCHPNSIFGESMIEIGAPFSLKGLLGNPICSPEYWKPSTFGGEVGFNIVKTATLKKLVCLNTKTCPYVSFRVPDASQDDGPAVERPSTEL
UniProt Q8N0Z8: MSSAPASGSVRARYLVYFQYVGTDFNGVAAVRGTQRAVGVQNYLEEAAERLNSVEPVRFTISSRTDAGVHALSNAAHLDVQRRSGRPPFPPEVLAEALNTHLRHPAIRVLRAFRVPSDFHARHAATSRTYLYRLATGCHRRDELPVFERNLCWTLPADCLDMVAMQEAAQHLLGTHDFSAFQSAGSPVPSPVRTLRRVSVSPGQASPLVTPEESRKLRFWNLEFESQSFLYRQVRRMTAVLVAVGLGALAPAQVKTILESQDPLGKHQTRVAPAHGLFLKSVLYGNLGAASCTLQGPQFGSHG
UniProt Q00577: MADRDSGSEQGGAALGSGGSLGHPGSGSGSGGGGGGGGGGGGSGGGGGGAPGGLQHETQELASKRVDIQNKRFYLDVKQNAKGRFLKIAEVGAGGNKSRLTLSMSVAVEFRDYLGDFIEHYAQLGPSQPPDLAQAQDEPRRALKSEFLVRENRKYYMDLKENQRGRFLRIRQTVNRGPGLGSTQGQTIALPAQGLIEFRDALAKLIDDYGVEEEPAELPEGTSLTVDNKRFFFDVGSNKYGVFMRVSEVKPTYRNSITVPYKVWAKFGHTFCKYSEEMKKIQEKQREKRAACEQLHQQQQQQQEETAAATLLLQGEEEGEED
UniProt Q16378: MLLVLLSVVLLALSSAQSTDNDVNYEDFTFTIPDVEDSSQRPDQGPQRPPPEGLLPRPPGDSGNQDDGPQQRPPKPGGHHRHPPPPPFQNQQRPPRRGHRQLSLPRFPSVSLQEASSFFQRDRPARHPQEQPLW
UniProt O14818: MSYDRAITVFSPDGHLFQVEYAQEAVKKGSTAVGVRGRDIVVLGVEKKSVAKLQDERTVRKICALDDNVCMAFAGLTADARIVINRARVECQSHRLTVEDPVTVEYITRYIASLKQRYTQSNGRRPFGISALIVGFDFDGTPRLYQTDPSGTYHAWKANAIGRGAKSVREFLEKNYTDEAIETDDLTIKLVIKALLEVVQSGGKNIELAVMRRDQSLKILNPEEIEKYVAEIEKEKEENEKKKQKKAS
UniProt Q15008: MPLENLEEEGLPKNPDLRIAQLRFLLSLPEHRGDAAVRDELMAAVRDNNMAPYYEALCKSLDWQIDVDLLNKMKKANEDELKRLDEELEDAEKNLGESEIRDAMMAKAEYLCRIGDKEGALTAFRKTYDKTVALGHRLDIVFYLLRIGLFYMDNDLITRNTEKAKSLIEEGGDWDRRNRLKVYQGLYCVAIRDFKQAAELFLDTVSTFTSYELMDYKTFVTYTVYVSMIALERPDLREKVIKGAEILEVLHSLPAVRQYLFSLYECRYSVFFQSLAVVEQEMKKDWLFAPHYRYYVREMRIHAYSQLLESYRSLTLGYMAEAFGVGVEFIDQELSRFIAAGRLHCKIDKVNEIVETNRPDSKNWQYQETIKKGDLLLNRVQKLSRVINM
UniProt O75365, whole entry, looked up: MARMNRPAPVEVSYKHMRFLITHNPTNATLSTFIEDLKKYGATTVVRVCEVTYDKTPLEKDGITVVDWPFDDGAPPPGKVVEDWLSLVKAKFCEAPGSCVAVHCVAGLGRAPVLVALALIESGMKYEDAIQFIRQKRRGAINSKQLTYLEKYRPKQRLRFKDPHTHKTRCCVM
UniProt Q8WV60: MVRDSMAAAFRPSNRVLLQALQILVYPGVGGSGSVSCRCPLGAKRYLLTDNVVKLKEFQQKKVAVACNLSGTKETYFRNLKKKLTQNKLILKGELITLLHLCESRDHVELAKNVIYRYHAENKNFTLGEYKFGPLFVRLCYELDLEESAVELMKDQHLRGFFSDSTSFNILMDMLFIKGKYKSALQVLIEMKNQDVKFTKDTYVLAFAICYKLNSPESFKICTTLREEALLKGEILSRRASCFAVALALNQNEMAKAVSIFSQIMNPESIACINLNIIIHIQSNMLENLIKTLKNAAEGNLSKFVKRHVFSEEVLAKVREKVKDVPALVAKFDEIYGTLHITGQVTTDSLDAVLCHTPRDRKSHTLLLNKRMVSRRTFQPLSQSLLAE
UniProt P79522: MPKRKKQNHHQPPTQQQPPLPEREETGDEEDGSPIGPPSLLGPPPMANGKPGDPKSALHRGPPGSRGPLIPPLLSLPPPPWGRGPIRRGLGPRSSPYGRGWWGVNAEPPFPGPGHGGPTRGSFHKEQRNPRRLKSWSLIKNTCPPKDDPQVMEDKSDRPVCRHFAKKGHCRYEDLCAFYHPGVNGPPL
UniProt Q6NUJ5: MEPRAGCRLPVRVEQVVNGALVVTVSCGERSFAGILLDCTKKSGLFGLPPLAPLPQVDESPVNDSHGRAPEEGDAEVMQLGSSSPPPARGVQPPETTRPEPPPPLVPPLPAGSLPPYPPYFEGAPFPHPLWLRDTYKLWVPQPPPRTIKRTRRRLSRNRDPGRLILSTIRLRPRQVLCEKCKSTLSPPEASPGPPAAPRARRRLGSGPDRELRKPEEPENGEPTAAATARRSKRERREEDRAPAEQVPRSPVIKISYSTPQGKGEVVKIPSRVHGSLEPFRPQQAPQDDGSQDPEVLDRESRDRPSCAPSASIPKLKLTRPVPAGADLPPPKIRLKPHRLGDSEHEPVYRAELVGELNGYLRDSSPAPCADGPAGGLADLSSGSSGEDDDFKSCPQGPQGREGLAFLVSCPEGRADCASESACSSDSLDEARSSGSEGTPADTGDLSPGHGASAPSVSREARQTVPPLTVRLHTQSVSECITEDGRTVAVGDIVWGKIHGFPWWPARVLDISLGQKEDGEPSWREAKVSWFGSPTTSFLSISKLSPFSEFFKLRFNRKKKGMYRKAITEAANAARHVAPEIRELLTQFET
UniProt Q9BRX8: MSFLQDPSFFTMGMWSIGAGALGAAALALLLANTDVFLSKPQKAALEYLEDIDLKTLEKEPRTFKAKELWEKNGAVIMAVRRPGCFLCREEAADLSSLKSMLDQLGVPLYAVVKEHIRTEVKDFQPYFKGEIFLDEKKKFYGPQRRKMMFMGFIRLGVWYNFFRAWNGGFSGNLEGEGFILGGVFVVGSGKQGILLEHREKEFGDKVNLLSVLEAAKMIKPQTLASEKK
UniProt Q86YD1: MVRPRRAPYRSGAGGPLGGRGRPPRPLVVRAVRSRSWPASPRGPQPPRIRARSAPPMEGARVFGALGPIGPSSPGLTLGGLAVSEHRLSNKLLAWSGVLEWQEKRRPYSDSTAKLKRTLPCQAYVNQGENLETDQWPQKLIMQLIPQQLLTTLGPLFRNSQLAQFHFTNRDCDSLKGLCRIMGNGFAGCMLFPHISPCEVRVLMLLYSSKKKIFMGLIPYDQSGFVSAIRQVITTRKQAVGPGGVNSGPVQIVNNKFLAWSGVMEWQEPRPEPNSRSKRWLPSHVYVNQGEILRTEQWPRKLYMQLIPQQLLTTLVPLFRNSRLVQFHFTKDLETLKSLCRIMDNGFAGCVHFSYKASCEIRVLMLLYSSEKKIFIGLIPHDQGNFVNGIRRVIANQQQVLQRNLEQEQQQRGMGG

How the values were obtained:
Assay in all cases: log2 fold change, soluble protein after heating vs DMSO (PISA); higher = thermal stabilisation; K562 lysate, 10 uM; active = over 0.2 and 3.5 SD of the protein, either way, in both replicates (recomputed)
[1] = compound: C1=CC=C(C=C1)[C@H](COC2=CC3=C(C=C2)NC(=O)N3)NC(=O)C4=CC=CN(C4=O)CC5=CC(=C(C=C5)F)F
How it was run: (§1)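 Thermal stability, expressed as log-two fold change relative to solvent controls, is given from duplicates. Crude K562 extract in PBS pH 7.4 with 1 mM MgCl2, at 1 mg/mL protein, was treated with 10 μM compound for 30 min and heated in aliquots for 3 min across 48°C-58°C. After pooling, adjustment to 0.5% NP-40 at 4°C and centrifugation at 21,000xg for 90 min, supernatant protein was measured by TMTpro 16plex LC-MS/MS with channel sums equalised.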

[2] = compound: CC1=C(SC2=C1C(=N[C@H](C3=NN=C(N32)C)CC(=O)N)C4=CC=C(C=C4)Cl)C
How it was run: as §1

[3] = compound: CC1=C2C(=CC=C1)N=C(N(C2=O)C3=CC=CC=C3C)CN4C=NC5=C(N=CN=C54)N
How it was run: as §1

[4] = compound: Cc1sc2c(c1C)C(c1ccc(Cl)cc1)=N[C@@H](CC(=O)OC(C)(C)C)c1nnc(C)n1-2
How it was run: as §1

[5] = compound: c1ccc([C@@H]2C[C@H]2NC2CCNCC2)cc1
How it was run: as §1

Measured: log2 fold change

PSME2 (UniProt Q9UL46)
inactive: [1] 0.058 | [2] -0.01 | [3] -0.001 | [4] -0.075 | [5] -0.103

PRXL2B isoform 3 (UniProt Q8TBF2)
inactive: [1] -0.016 | [2] 0.128 | [3] 0.044 | [4] -0.064 | [5] 0.027

PSMA1 isoform 2 (UniProt P25786)
inactive: [1] 0.037 | [2] 0.01 | [3] -0.01 | [4] 0.008 | [5] -0.004

PRR14L (UniProt Q5THK1)
inactive: [1] -0.038 | [2] 0.01 | [3] -0.003 | [4] -0.022 | [5] 0.154

PTDSS1 (UniProt P48651)
inactive: [1] -0.142 | [2] 0.123 | [3] 0.095 | [4] 0.079 | [5] 0.002

PTGS1 isoform 6 (UniProt P23219)
inactive: [1] -0.007 | [2] -0.035 | [3] 0.077 | [4] -0.026 | [5] -0.11

PRRC2B (UniProt Q5JSZ5)
inactive: [1] 0.054 | [2] -0.04 | [3] 0.122 | [4] 0.054 | [5] -0.007

PSMB2, A0A087WVV1
inactive: [1] -0.124 | [2] -0.034 | [3] 0.064 | [5] -0.347

PUSL1 (UniProt Q8N0Z8)
inactive: [1] -0.459 | [2] 0.222 | [3] 0.026 | [4] -0.05 | [5] -0.052

PWP2 (UniProt Q15269)
inactive: [1] -0.004 | [2] -0.042 | [3] -0.013 | [4] -0.048 | [5] 0.061

PTPN9 (UniProt P43378)
inactive: [1] -0.1 | [2] 0.04 | [3] 0.102 | [4] -0.051 | [5] -0.017

PURA (UniProt Q00577)
inactive: [1] 0.004 | [2] 0.029 | [3] 0.003 | [4] -0.01 | [5] 0.061

PRR4 (UniProt Q16378)
inactive: [3] -0.076 | [5] -0.269

PTPA (UniProt Q5T948)
inactive: [3] -0.033

PRSS8 (UniProt Q16651)
inactive: [4] 0.017 | [5] 0.012

PTPRB isoform 3 (UniProt P23467)
inactive: [1] -0.39 | [2] 0.006 | [4] 0.149

PSIP1 (UniProt V9GYT7)
inactive: [1] 0.156 | [2] -0.192 | [5] 0

PSMA7 isoform 2 (UniProt O14818)
inactive: [4] -0.085

PSMA3 (UniProt H0YJ03)
inactive: [3] 0.171 | [4] 0.034

PSMD6 (UniProt Q15008)
inactive: [1] 0.067 | [2] 0.049 | [5] -0.363

PTEN isoform 2 (UniProt P60484)
inactive: [1] 0.022 | [2] 0.044 | [4] -0.021 | [5] -0.237

PTP4A3 (UniProt O75365)
inactive: [3] -0.212 | [4] 0.004

PWWP2A (UniProt Q96N64)
inactive: [5] 0.061

PTPN11 (UniProt Q06124)
inactive: [5] -0.004

PTCD2 (UniProt Q8WV60)
inactive: [3] -0.016 | [4] 0.06

PTPRJ (UniProt Q12913)
inactive: [1] -0.04 | [2] 0.083 | [3] 0.141 | [5] 0.058

PSMC3 (UniProt E9PLG2)
inactive: [3] 0.011

PRSS2 (UniProt P07478)
inactive: [4] 0.002 | [5] -0.019

PSEN2 (UniProt P49810)
inactive: [1] 0.024 | [2] -0.003 | [4] -0.107 | [5] -0.013

PRR12 (UniProt Q9ULL5)
inactive: [1] -0.027 | [2] 0.126 | [5] 0.3

PUM2 (UniProt C9JW01)
inactive: [5] -0.112

PSMF1 (UniProt Q5QPM7)
inactive: [3] -0.021 | [5] 0.085

PRR3 (UniProt P79522)
inactive: [3] 0.046

Retrieved one by one from the list above, 3 records:
PSEN2 (UniProt P49810)
inactive: [1] 0.024 | [2] -0.003 | [4] -0.107 | [5] -0.013

PRSS2 (UniProt P07478)
inactive: [4] 0.002 | [5] -0.019

PRR12 (UniProt Q9ULL5)
inactive: [1] -0.027 | [2] 0.126 | [5] 0.3

Following part

PWWP2B (UniProt Q6NUJ5)
inactive: [4] 0.074 | [5] 0.035

PSMA7 (UniProt H0Y586)
inactive: [1] -0.036 | [2] 0.099 | [5] 0.152

PRXL2A (UniProt Q9BRX8)
inactive: [1] -0.063 | [2] 0.245 | [4] 0.047 | [5] -0.137

PTMS (UniProt F5GXR3)
inactive: [3] -0.279

PSMB8 (UniProt P28062)
inactive: [1] -0.025 | [2] -0.066 | [4] -0.142 | [5] -0.039

PRSS50 (UniProt Q9UI38)
inactive: [1] 0.034 | [2] -0.029 | [4] 0.1 | [5] 0.129

PSTK (UniProt H7BYY4)
inactive: [4] 0.039 | [5] -0.055

PTOV1 (UniProt Q86YD1)
inactive: [3] -0.126 | [4] -0.28 | [5] 0.074

PTGDR2 (UniProt Q9Y5Y4)
inactive: [5] 0.082

PSMD4 (UniProt Q5VWC4)
inactive: [1] 0.005 | [2] 0.013 | [3] 0.011 | [5] -0.122

PTPRF (UniProt P10586)
inactive: [3] 0.243 | [5] 0.008

PTRH1 (UniProt Q86Y79)
inactive: [3] -0.233 | [5] 0.193

PTK2 isoform 2 (UniProt Q05397)
inactive: [1] 0.07 | [2] 0.081 | [4] -0.324
